Data from article PMC4439739.
Results are given in words; binding and its absence hold for the method and conditions named. In cells and extracts the contact can be indirect. Some results given as binding are weak or reduced against the parent protein; the word gives no strength.

Target: T1, MIC60 (Mitofilin, IMMT), endogenous (human (endogenous in 293T and HCT116)) (UniProt Q16891)
T1 sequence: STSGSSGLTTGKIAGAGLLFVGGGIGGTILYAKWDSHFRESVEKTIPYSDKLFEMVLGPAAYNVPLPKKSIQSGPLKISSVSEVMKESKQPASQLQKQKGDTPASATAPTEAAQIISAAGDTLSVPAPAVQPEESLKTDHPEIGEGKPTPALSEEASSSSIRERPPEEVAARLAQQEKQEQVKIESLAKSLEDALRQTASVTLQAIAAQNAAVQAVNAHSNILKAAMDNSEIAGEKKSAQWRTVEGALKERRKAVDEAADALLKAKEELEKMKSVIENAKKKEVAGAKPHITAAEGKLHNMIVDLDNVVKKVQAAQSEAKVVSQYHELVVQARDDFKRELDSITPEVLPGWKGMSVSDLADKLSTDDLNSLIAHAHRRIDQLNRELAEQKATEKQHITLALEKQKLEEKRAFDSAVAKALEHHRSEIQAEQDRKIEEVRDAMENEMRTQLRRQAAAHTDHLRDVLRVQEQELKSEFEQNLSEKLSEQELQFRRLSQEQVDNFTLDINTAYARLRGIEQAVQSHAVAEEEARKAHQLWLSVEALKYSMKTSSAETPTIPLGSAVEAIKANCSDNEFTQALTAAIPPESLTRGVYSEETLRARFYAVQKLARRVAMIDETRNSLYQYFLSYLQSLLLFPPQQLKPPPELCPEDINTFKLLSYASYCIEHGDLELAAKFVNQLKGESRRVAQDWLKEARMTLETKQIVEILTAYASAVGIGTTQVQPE
Assay: co-IP; endogenous MIC60 immunopurified from crude mitochondria isolated from HCT116 cells stably expressing FF2 (control) or QIL1 shRNA; immunoblot, densitometry

- binding: binds
B1: SAMM50, endogenous (protein, UniProt Q9Y512 1-469)
chain: MGTVHARSLEPLPSSGPDFGGLGEEAEFVEVEPEAKQEILENKDVVVQHVHFDGLGRTKDDIIICEIGDVFKAKNLIEVMRKSHEAREKLLRLGIFRQVDVLIDTCQGDDALPNGLDVTFEVTELRRLTGSYNTMVGNNEGSMVLGLKLPNLLGRAEKVTFQFSYGTKETSYGLSFFKPRPGNFERNFSVNLYKVTGQFPWSSLRETDRGMSAEYSFPIWKTSHTVKWEGVWRELGCLSRTASFAVRKESGHSLKSSLSHAMVIDSRNSSILPRRGALLKVNQELAGYTGGDVSFIKEDFELQLNKQLIFDSVFSASFWGGMLVPIGDKPSSIADRFYLGGPTSIRGFSMHSIGPQSEGDYLGGEAYWAGGLHLYTPLPFRPGQGGFGELFRTHFFLNAGNLCNLNYGEGPKAHIRKLAECIRWSYGAGIVLRLGNIARLELNYCVPMGVQTGDRICDGVQFGAGIRFL
